Experimental data from publication PMC8778264 (Nanomaterials, 2022).

Tested on: CRL-1739 cells
Experiment: In vitro cytotoxicity (MTT assay)
Type: cell-based
Settings: 48 h, GraphPad Prism
Protocol: The cell line was cultured in DMEM supported with 10% fetal bovine serum, 0.5 mg/mL glutamine/penicillin streptomycin at 37 °C and 5% CO2. […] Ninety-six well flat-bottom plates and […] DMEM were used for the seeding procedure. […] Then, 100 μL of MTT solution (5 mg/mL) was put into each well and incubated at 37 °C. The culture medium was removed. Then, 200 μL of dimethysulfoxide was added to obtain the dissolution of the MTT formazan crystals. The absorbance was read at 570 nm using a microplate reader.

Work on `Cc1ccc(NC(=O)c2ccc(CN3CCN(C)CC3)cc2)cc1Nc1nccc(-c2cccnc2)n1` [IMT, Imatinib] yielded an IC50 of 9.51 µM.
